Experimental data taken from the supplement of paper PMC5407854, “Inhibitor of ppGalNAc-T3-mediated O-glycosylation blocks cancer cell invasiveness and lowers FGF23 levels” (eLife, 2017).
The other results are listed elsewhere or left out. Small differences around the control level are noise.

tested on: ppGalNAc-T3 sensor; test: T3 sensor activation Q score (MG/GFP ratio z-score vs DMSO controls) (SD units); higher = more sensor activation (inhibition of ppGalNAc-T3 glycosylation); details: HEK293 sensor cells; 10 µM; 6 h
Method: (§1)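 Cells were treated with compound at 10 uM for 6 h, then MG/GFP ratio was read by flow cytometry (10,000 cells per well, duplicate wells). Q = (R - R_neg)/SD_neg relative to DMSO vehicle controls; the signal rises when the glycosyltransferase is inhibited.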

Row | Compound | T3 sensor activation Q score
1 | C=CCNc1nc(OC)nc(OC)n1 | -0.2
2 | Cc1nc2ccc(Br)cc2[nH]1 | 0.75
3 | Cc1ccc2c(c1)c1c3n2CCCNC3CCC1 (stereo not drawn) | 0.185
4 | O=C(O)CCC(=O)c1c[nH]c2ccccc12 | 0.335
5 | O=C(CC(Nc1ccccc1)c1ccccc1)c1ccccc1 (stereo not drawn) | -0.11
6 | O=C1CC(N2CCN(c3ccccn3)CC2)C(=O)N1c1ccc(Cl)cc1 (stereo not drawn) | 0.205
7 | NS(=O)(=O)c1ccc(Nc2nc(-c3cccnc3)cs2)cc1 | 0.76
8 | COc1ccc(OC)c(CN2CCCN(C)CC2)c1 | 0.405
9 | OC(COC1C2CC3CC(C2)CC1C3)CN1CCCCC1 (stereo not drawn) | 0.8
10 | COc1ccccc1C1CC(=O)N(C)C2=C1C(=O)CC(C)(C)C2 (stereo not drawn) | -0.195
11 | CC(NC(=O)C1CCCCC1C(=O)O)c1ccccc1 (stereo not drawn) | 0.265
12 | Cc1cc(-c2cc(C(=O)O)c3ccccc3n2)c(C)s1 | 1.26
13 | O=C(NCCO)C12CC3CCC(CC(C3)C1)C2 | 0.3
14 | c1ccc2c(NC3CC3)nc(N3CCCC3)nc2c1 | 0.785
15 | Cc1ccc2nc(-c3ccc([N+](=O)[O-])cc3)cn2c1 | 0.75
16 | O=C(C1CCCO1)N1CCN(c2cccc(Cl)c2)CC1 (stereo not drawn) | 0.42
17 | CCNc1nc(NC(C)C)nc(N2CCCC2)n1 | -0.555
18 | c1cc(-c2nc3ccncc3[nH]2)ccn1 | -0.385
19 | COc1ccc2nc(N=C(N)N)nc(C)c2c1 | -0.185
20 | CC(O)Cn1c2ccccc2c2cc(Cl)ccc21 (stereo not drawn) | -0.05

Row | Compound | T3 sensor activation Q score
21 | CCCCN1C(=O)C(O)=C(C(C)=O)C1c1ccc(OC)c(OC)c1 (stereo not drawn) | -0.22
22 | O=C(O)c1cccc(S(=O)(=O)N2CCCCCC2)c1 | -0.325
23 | COc1ccc(CN2CCN(C/C=C/c3ccccc3)CC2)cc1OC | -0.775
24 | CC(=O)C1=C(O)C(=O)N(c2ccc(C)cc2)C1c1ccc(N(C)C)cc1 (stereo not drawn) | 0.24
25 | OCC(O)Cn1c2ccccc2c2ccccc21 (stereo not drawn) | 1.26
26 | COc1ccc(S(=O)(=O)Nc2cccc(Cl)c2Cl)cc1 | 0.355
27 | O=C(Nc1ccccc1Cl)NC12CC3CC(CC(C3)C1)C2 | -0.485
28 | COc1ccccc1N1CCN(C(=O)c2cccs2)CC1 | -0.09
29 | O=C1CC(NCCCN2CCOCC2)C(=O)N1c1ccc(Br)cc1 (stereo not drawn) | -1.5
30 | COc1cc(CN2CCN(c3ccccc3)CC2)c([N+](=O)[O-])cc1OC | -0.485
31 | Cc1cc(C)c(OCCn2ccnc2)c(C)c1 | 0.86
32 | CNC(=O)Nc1ccc(C(=O)O)cc1 | 1.16
33 | O=[N+]([O-])c1ccccc1CN1CCN(C/C=C/c2ccccc2)CC1 | 0.48
34 | Cc1c(Cc2ccccc2)sc(N)c1C(N)=O | 0.61
35 | Fc1ccccc1CN1CCN(c2ccccn2)CC1 | 0.325
36 | O=C(O)CCCC(=O)Nc1ccc(Cl)cc1 | 0.81
37 | O=[N+]([O-])c1cc2c(cc1CN1CCN(c3ccccc3)CC1)OCO2 | 0.435
38 | Cc1cccc(NC(=O)c2ccco2)c1 | -1.01
39 | Cc1ccc(OCC(O)CN)cc1 (stereo not drawn) | -0.1

tested on: ppGalNAc-T2 sensor; test: T2 sensor activation Q score (MG/GFP ratio z-score vs DMSO controls) (SD units); higher = more sensor activation (inhibition of ppGalNAc-T2 glycosylation); details: HEK293 sensor cells; 10 µM; 6 h
Method: as §1

Row | Compound | T2 sensor activation Q score
40 | C=CCNc1nc(OC)nc(OC)n1 | -0.575
41 | Cc1nc2ccc(Br)cc2[nH]1 | -0.015
42 | Cc1ccc2c(c1)c1c3n2CCCNC3CCC1 (stereo not drawn) | -0.67
43 | O=C(O)CCC(=O)c1c[nH]c2ccccc12 | 0.3
44 | O=C(CC(Nc1ccccc1)c1ccccc1)c1ccccc1 (stereo not drawn) | -0.16
45 | O=C1CC(N2CCN(c3ccccn3)CC2)C(=O)N1c1ccc(Cl)cc1 (stereo not drawn) | -1.16
46 | NS(=O)(=O)c1ccc(Nc2nc(-c3cccnc3)cs2)cc1 | 0.1
47 | COc1ccc(OC)c(CN2CCCN(C)CC2)c1 | -0.955
48 | OC(COC1C2CC3CC(C2)CC1C3)CN1CCCCC1 (stereo not drawn) | -0.715
49 | COc1ccccc1C1CC(=O)N(C)C2=C1C(=O)CC(C)(C)C2 (stereo not drawn) | -0.275
50 | CC(NC(=O)C1CCCCC1C(=O)O)c1ccccc1 (stereo not drawn) | -0.85
51 | Cc1cc(-c2cc(C(=O)O)c3ccccc3n2)c(C)s1 | 0.395
52 | O=C(NCCO)C12CC3CCC(CC(C3)C1)C2 | 0.65
53 | c1ccc2c(NC3CC3)nc(N3CCCC3)nc2c1 | -0.68
54 | Cc1ccc2nc(-c3ccc([N+](=O)[O-])cc3)cn2c1 | -0.195
55 | O=C(C1CCCO1)N1CCN(c2cccc(Cl)c2)CC1 (stereo not drawn) | 1.05
56 | CCNc1nc(NC(C)C)nc(N2CCCC2)n1 | 0.39
57 | c1cc(-c2nc3ccncc3[nH]2)ccn1 | 0.325
58 | COc1ccc2nc(N=C(N)N)nc(C)c2c1 | -0.075
59 | CC(O)Cn1c2ccccc2c2cc(Cl)ccc21 (stereo not drawn) | -0.425

Row | Compound | T2 sensor activation Q score
60 | CCCCN1C(=O)C(O)=C(C(C)=O)C1c1ccc(OC)c(OC)c1 (stereo not drawn) | -0.295
61 | O=C(O)c1cccc(S(=O)(=O)N2CCCCCC2)c1 | 1.29
62 | COc1ccc(CN2CCN(C/C=C/c3ccccc3)CC2)cc1OC | -0.405
63 | CC(=O)C1=C(O)C(=O)N(c2ccc(C)cc2)C1c1ccc(N(C)C)cc1 (stereo not drawn) | -0.21
64 | OCC(O)Cn1c2ccccc2c2ccccc21 (stereo not drawn) | 2.69
65 | COc1ccc(S(=O)(=O)Nc2cccc(Cl)c2Cl)cc1 | -0.92
66 | O=C(Nc1ccccc1Cl)NC12CC3CC(CC(C3)C1)C2 | 1.07
67 | COc1ccccc1N1CCN(C(=O)c2cccs2)CC1 | -0.395
68 | O=C1CC(NCCCN2CCOCC2)C(=O)N1c1ccc(Br)cc1 (stereo not drawn) | -0.815
69 | COc1cc(CN2CCN(c3ccccc3)CC2)c([N+](=O)[O-])cc1OC | -0.07
70 | Cc1cc(C)c(OCCn2ccnc2)c(C)c1 | 1.99
71 | CNC(=O)Nc1ccc(C(=O)O)cc1 | -0.23
72 | O=[N+]([O-])c1ccccc1CN1CCN(C/C=C/c2ccccc2)CC1 | 1.18
73 | Cc1c(Cc2ccccc2)sc(N)c1C(N)=O | 0.695
74 | Fc1ccccc1CN1CCN(c2ccccn2)CC1 | -0.78
75 | O=C(O)CCCC(=O)Nc1ccc(Cl)cc1 | 1.29
76 | O=[N+]([O-])c1cc2c(cc1CN1CCN(c3ccccc3)CC1)OCO2 | 0.495
77 | Cc1cccc(NC(=O)c2ccco2)c1 | -1.61
78 | Cc1ccc(OCC(O)CN)cc1 (stereo not drawn) | -0.215

Some values from the results shown.
Under T2 sensor activation Q score, Cc1ccc(OCC(O)CN)cc1 (stereo not drawn) is listed with -0.215
Under T2 sensor activation Q score, O=C1CC(N2CCN(c3ccccn3)CC2)C(=O)N1c1ccc(Cl)cc1 (stereo not drawn) is listed with -1.16
Under T2 sensor activation Q score, Fc1ccccc1CN1CCN(c2ccccn2)CC1 is listed with -0.78
Under T2 sensor activation Q score, CC(=O)C1=C(O)C(=O)N(c2ccc(C)cc2)C1c1ccc(N(C)C)cc1 (stereo not drawn) is listed with -0.21
